Results deposited as PubChem BioAssay AID504786 (Drosophila RNAi Screening Center, 2011).

- Aim: 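Fly genes required for HIF-dependent transcription when hypoxia is mimicked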 (primary screen)
- Cells: Drosophila S2 cells with a stable HIF luciferase reporter
- Reagents: long dsRNA against Drosophila genes, about 0.2 µg dsRNA per well of a 384-well plate
- Time to read-out: three days of knock-down, then 20 h of DFO before reading
- Conditions: desferrioxamine (DFO) at 100 µM, an iron chelator that mimics hypoxia, for 20 h
- Measurement: 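HIF reporter luminescence in cells given 100 µM DFO for 20 h, using the mouse ldh-a hypoxia-response element, scored as per-plate z-scores; higher means greater loss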
- Direction: z-score: higher = stronger loss of HIF reporter signal
In all, the deposit lists about 21,000 reagents; shown is an unselected part of those with a known target gene and a result. 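Primary screen; positive scores mean lost reporter signal, so the sign may be inverted from the usual convention.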 Not all columns of the deposit are shown.

z-score, replicate 1, by gene knocked down and reagent
csul: DRSC07599 -0.4
CG33272: DRSC09116 -0.3
Teh2: DRSC08458 -0.3
CG32054: DRSC10684 -0.3
CG6765: DRSC10706 -0.1
GlnRS: DRSC14140 0.5
Rpn6: DRSC07541 4
CG15876: DRSC08484 -0.4
Pits: DRSC19385 0.5; DRSC19812 -0.3
CG34049: DRSC00104 1.4
Nubpl: DRSC03725 -0.1
Psf3: DRSC18216 -0.3
CG9497: DRSC03234 -0.3
ClC-a: DRSC14947 -0.4; DRSC14948 -0.4; DRSC16142 -0.2
Golgin97: DRSC06895 -0.4
scro: DRSC17099 -0.1; DRSC17102 -0.3
Pi3K59F: DRSC04640 -0.2
babos: DRSC03923 0.1; DRSC04397 -0.1
CG13449: DRSC09996 -0.1
CG30376: DRSC05086 -0.2
Obp19a: DRSC20487 -0.1
CG11655: DRSC19413 -0.1
witty: DRSC02378 -0.2
CG11698: DRSC14355 -0.7
Paf-AHalpha: DRSC20267 -0.3

Entries listed so far whose gene name starts with P or p:
z-score, replicate 1, by gene knocked down and reagent
Pits: DRSC19385 0.5; DRSC19812 -0.3
Psf3: DRSC18216 -0.3
Pi3K59F: DRSC04640 -0.2
Paf-AHalpha: DRSC20267 -0.3

The results go on:
z-score, replicate 1, by gene knocked down and reagent
euc: DRSC14492 -1.3
chif: DRSC03508 0.8
Myb: DRSC20260 1.4
hop: DRSC20340 0.3
CG40191: DRSC21041 0.4
CG6689: DRSC16095 -0.4
loopin-1: DRSC06888 -0.2
B4: DRSC01868 -0.2; DRSC03175 -0.3
Snx16: DRSC06984 -0.4
CG13992: DRSC02324 -0.3
Mal-B2: DRSC02417 -0.8
CG4586: DRSC18373 -0.3
MCU: DRSC10339 -0.2
Skp2: DRSC12329 -0.1
CG8026: DRSC07055 -0.3; DRSC07056 -0.4
stac: DRSC13693 -0.3; DRSC14392 -0.5
Cyp9b1: DRSC07389 -0.3
CG12236: DRSC17830 0.8; DRSC17831 -0.3
Prp16: DRSC19538 -0.5; DRSC19542 -0.3
Tret1-1: DRSC07046 0; DRSC07048 -0.2
Fnta: DRSC00557 -0.4
mRpL40: DRSC15749 0.6
CG18528: DRSC15340 -0.3
Nha2: DRSC14689 -0.4; DRSC15619 0.8; DRSC15623 -0.2
MESR3: DRSC02463 0
CG34353: DRSC14493 -0.5; DRSC14517 -0.6; DRSC14563 -0.3; DRSC15837 -0.3
cv-d: DRSC16522 -0.2; DRSC16524 -0.2; DRSC16526 -0.3
CG12655: DRSC20678 -0.3
fend: DRSC17601 -0.5; DRSC17867 -0.2
Nplp4: DRSC00391 0.1
CCT7: DRSC16410 0.7
CG32085: DRSC10138 0; DRSC10139 -0.2; DRSC10576 -0.1
Cpr92A: DRSC16000 -0.2
CG4631: DRSC02766 -0.2
tmod: DRSC13993 -0.4; DRSC14314 0.5; DRSC15076 -0.6; DRSC17062 -0.3
